No constants are given. Whether binding was seen depends on the method and setting. Binding seen in cells or lysates may run through a third protein. Here binding means that the protein was enriched with, or labelled near, the bait; the list need not be complete.
B1: Exosc10 (enzyme, UniProt P56960 1-887)
chain: MAPPSPREHQSAPATSATKPDAEMVLPGFPDADSFVKFALGSVVAVTKASGGLPQFGDEYDFYRSFPAFQAFCETQGDRLLQCMSRVMQYHGCRSNIKDRSKVTELEDKFDLLVDTNDVILERVGMLLDEASGVNKHQQPVLPAGLQVPKTIVSSWNRKAGEYGKKAKSETFRLLHAKNIVRPQLRFREKIDNSNTPFLPKIFVKPNARKPLPLALSKERRERPQDRPEDLDVPPALADFIHQQRTQQVEQDMFAHPYQYELDHFTPPQSVLQRPKPQLYRAVGETPCHLVSSLDELVELNEKLLGCQEFAVDLEHHSYRSFLGLTCLMQISTRTEDFIVDTLELRSDMYILNESLTDPAIVKVFHGADSDIEWLQKDFGLYVVNMFDTHQAARLLNLARHSLDHLLRLYCGVESNKQYQLADWRIRPLPEEMLSYARDDTHYLLYIYDRMRLELWERGNHQPVQLQVVWQRSRDICLKKFVKPIFTDESYLELYRKQKKHLNSQQLTAFQLLFAWRDKTARREDESYGYVLPNHMMLKIAEELPKEPQGIIACCNPVPPLVRQQINEMHLLIQQAREMPLLKSENAAGVRKSGPLPSAERLENDLFGPHDCSHAPPDNYQNTSTDGTLPLQKQPSLFTEGKEETSVDAGCLLATAVITLFSEPNTEEGGKTPLTVAQKKAQNIMQSFENPFRMFLPSLEHKAHISQAAKFDPSSKIYEISNRWKLASQVQVQKEPKEATKKKVAEQTAAREEAKEEAAAGVLEQAIPVRQQAALENATKKRERATSDLRTIEQKQEKKRLKSSKKAKDPDPPGKDFSPYDYSQSDFRAFAGDSKSKPSSQFDPNKLAPSGKKGVGAKKCKQSVGNKSMSFAVGKSDRGFRHNWPKR
B2: Dis3 (enzyme, UniProt Q9CSH3 1-958)
chain: MLRSKTFLKKTRAGGVVKIVREHYLRDDIGCGAPACSACGGAHAGPALELQPRDQASSLCPWPHYLLPDTNVLLHQIDVLEHPAIRNVIVLQTVMQEVRNRSAPIYKRIRDVTNNQEKHFYTFTNEHHKETYIEQEQGENANDRNDRAIRVAAKWYNEHLKRVAADSQLQVILITNDRKNKEKAVQEGIPAFTCEEYVKSLTANPELIDRLAYLSDEMNEIESGKIIFSEHLPLSKLQQGIKSGSYLQGTFRASRENYLEATVWIHGDKEEEKEILIQGIKHLNRAVHEDIVAVELLPRSQWVAPSSVVLDDEGQNEDDVEKDEERELLLKTAVSEKMLRPTGRVVGIIKRNWRPYCGMLSKSDIKESRRHLFTPADKRIPRIRIETRQASALEGRRIIVAIDGWPRNSRYPNGHFVKNLGDVGEKETETEVLLLEHDVPHQPFSQAVLSFLPRMPWSITEEDMKNREDLRHLCVCSVDPPGCTDIDDALHCRELSNGNLEVGVHIADVSHFIRPGNALDQESARRGTTVYLCEKRIDMVPELLSSNLCSLRSNVDRLAFSCIWEMNHNAEILKTRFTKSVINSKASLTYAEAQMRIDSAAMNDDITTSLRGLNQLAKILKKGRIEKGALTLSSPEIRFHMDSETHDPIDLQTKELRETNSMVEEFMLLANISVAKKIHEEFSEHALLRKHPAPPPSNYDILVKAAKSKNLQIKTDTAKSLADSLDRAESPDFPYLNTLLRILATRCMMQAVYFCSGMDNDFHHYGLASPIYTHFTSPIRRYADIIVHRLLAVAIGADCTYPELTDKHKLSDICKNLNFRHKMAQYAQRASVAFHTQLFFKSKGIVSEEAYILFVRKNAIVVLIPKYGLEGTVFFEEKDKPKPRLAYDDEIPSLRIEGTVFHVFDKVKVKITLDSSNLQHQKIRMALVEPQIPGINIPPNVADKALTAPGGKKRKLEK
B3: C1d (protein, UniProt O35473 1-141)
chain: MAGEEMNEDYPVEIHESLTALESSLGAVDDMLKTMMAVSRNELLQKLDPLEQAKVDLVSAYTLNSMFWVYLATQGVNPKEHPVKQELERIRVYMNRVKEITDKKKAAKLDRGAASRFVKNALWEPKAKSTPKVANKGKSKH
B4: Mphosph6 (protein, UniProt Q9D1Q1 1-161)
chain: MASERKTKLSKNLLRMKFMQRGLDSETKKQLEEEERKMISDEHWYLDLPELKEKESFIVEEQSFSLCEDLLYGRMSFRGFNPEVEKLMLQMNSKNRAEAAEEDETVEVDVSDEEMARRYETLVGTIGKKFVKKRDRANYEEDENGTIKAIKPKKMFLKPQD

The chains behind the UniProt entries cited, without tags or fusion partners.
UniProt Q8VBV3: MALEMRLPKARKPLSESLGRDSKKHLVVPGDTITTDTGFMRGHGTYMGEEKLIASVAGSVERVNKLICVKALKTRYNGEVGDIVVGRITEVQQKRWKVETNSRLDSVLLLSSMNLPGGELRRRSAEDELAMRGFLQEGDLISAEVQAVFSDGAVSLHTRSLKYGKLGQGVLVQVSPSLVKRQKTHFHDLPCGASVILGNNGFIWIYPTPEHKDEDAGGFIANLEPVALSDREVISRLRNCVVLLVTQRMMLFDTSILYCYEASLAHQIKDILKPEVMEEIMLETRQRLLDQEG
UniProt Q9D0M0: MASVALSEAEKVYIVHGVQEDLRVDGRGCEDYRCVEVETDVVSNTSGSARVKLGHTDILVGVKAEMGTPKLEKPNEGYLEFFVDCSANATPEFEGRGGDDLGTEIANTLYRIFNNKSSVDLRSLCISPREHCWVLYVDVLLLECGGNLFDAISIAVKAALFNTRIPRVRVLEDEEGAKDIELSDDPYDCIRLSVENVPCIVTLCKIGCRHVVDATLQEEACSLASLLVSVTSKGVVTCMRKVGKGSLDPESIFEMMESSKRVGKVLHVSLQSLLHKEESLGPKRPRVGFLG
UniProt Q7TQK4: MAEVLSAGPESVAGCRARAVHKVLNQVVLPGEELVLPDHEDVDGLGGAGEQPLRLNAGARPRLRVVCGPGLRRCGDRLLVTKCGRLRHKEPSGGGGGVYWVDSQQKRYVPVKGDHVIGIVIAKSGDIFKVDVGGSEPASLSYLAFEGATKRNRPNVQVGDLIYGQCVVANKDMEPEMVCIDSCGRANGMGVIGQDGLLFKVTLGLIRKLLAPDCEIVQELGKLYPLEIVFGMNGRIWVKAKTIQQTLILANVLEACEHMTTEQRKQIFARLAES
UniProt Q921I9: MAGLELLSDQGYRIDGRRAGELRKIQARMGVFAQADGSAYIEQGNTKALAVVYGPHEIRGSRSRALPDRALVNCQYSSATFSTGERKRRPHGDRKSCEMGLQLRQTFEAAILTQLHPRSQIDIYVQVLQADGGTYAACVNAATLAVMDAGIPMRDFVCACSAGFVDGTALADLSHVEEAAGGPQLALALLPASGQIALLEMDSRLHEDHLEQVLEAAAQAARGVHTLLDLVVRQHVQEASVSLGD
UniProt Q9CRA8: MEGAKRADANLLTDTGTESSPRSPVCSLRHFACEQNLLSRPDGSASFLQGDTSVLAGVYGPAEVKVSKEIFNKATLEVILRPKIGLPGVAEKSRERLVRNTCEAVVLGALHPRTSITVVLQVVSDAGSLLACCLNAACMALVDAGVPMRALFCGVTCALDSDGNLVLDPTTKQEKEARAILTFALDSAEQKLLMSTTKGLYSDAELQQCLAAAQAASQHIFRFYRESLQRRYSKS
UniProt Q8BTW3: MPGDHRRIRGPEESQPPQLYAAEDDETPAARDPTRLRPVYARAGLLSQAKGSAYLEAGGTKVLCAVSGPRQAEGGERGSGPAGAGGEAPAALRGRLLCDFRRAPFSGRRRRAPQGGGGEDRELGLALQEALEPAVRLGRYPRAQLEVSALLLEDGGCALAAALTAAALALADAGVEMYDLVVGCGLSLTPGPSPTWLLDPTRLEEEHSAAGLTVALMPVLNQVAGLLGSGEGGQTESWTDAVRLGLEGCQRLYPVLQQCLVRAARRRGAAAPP
UniProt Q9D753: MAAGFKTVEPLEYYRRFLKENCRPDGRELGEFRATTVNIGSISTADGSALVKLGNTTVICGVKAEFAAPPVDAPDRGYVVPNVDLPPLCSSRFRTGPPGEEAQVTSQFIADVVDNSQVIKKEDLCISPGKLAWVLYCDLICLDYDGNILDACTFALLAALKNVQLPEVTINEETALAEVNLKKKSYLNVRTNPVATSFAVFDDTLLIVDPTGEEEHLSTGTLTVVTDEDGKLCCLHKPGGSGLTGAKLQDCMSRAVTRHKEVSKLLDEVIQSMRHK
UniProt Q9JHI7: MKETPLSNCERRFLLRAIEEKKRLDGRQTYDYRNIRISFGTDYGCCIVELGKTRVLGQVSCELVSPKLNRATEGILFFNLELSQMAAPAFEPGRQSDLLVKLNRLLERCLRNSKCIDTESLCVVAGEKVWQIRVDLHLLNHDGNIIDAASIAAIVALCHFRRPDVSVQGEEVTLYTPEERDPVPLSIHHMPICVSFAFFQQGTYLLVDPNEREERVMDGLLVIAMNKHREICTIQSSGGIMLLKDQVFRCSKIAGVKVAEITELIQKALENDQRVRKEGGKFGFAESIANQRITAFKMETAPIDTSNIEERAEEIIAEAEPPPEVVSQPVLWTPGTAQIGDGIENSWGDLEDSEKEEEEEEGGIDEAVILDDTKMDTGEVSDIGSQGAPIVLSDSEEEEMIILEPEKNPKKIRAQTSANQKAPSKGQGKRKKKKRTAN

Tests used:
[1] = molecular target: Exosc2-mCherry-V5 (mouse) (UniProt Q8VBV3); test: affinity purification with mass spectrometry; anti-V5 immunoprecipitation from lysate of mESCs expressing Exosc2-mCherry-V5 against the V5-mCherry control, on-bead digestion, n = 3
Exosc7-3xFLAG (mouse) = Exosc7-3xFLAG (mouse) (UniProt Q9D0M0); test: affinity purification with mass spectrometry; FLAG magnetic beads on lysate of mESCs after 0, 60, 75, 90, 120 min and 24 h of doxycycline induction of Exosc7-3xFLAG, against parental cells
[2] = molecular target: Exosc2-HA-mNeonGreen (mouse) (UniProt Q8VBV3); test: affinity purification with mass spectrometry; whole-cell extract of Exosc2-HA-mNeonGreen mESCs separated on Superdex 200 Increase; fractions A7-A10, B3-B6 and B8-B11 pooled, Igepal CA-630 adjusted to 1%, anti-HA magnetic beads, against the untagged parental control, n = 3

Molecule | binding [1] | binding (Exosc7-3xFLAG (mouse)) | binding [2]
Exosc1 (from UniProt Q9DAA6-1 1-195) | binds | binds | binds
Exosc2 (from UniProt Q8VBV3 1-293) | – | binds | –
Exosc3 (from UniProt Q7TQK4 1-274) | binds | binds | binds
Exosc4 (from UniProt Q921I9 1-245) | – | binds | –
Exosc5 (from UniProt Q9CRA8 1-235) | – | binds | –
Exosc6 (from UniProt Q8BTW3 1-273) | binds | binds | binds
Exosc7 (from UniProt Q9D0M0 1-291) | binds | – | binds
Exosc8 (from UniProt Q9D753 1-276) | binds | binds | binds
Exosc9 (from UniProt Q9JHI7 1-438) | binds | binds | binds
B1 | binds | – | –
B2 | binds weakly | – | –
B3 | – | – | binds
B4 | – | – | binds

From paper PMC13434269
